{"source": "the supplement of paper PMC4604168 (melanoma cell lines)", "note": "The other results are listed elsewhere or left out. Repeats are few or missing, and single values can be far off.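 Imaging used 1,536-well plates; nuclei positive for cleaved PARP by antibody were divided by total DNA-stained nuclei to yield the apoptosis fraction. Doses for screening kept most cells viable, and cell lines differ markedly in resting and induced cleaved-PARP levels.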", "data": [{"tested_on": "CBRC017 (line from a melanoma biopsy)", "test": "cleaved PARP positive nuclei fraction relative to DMSO control; melanoma cells; higher = more apoptosis", "conditions": "library dose: low library concentration; 72 h", "units": {"cleaved PARP positive nuclei fraction": "%"}, "values": [{"smiles": "CN(c1ncccc1CNc1nc(Nc2ccc3c(c2)CC(=O)N3)ncc1C(F)(F)F)S(C)(=O)=O", "note": "+ COc1ccc(-c2ccc3c(N4CCOCC4)nc(N4C[C@@H](C)O[C@@H](C)C4)nc3n2)cc1CO [KU0063794] (first compound 0.08 µM, partner dose 0.02 µM)", "cleaved PARP positive nuclei fraction": 71.3}, {"smiles": "CCN(CC)CCNC(=O)c1c(C)[nH]c(/C=C2\\C(=O)Nc3ccc(F)cc32)c1C", "note": "[sunitinib] + CCN(CC)CCCCNc1ncc2cc(-c3cc(OC)cc(OC)c3)c(NC(=O)NC(C)(C)C)nc2n1 [PD173074] (first compound 0.4 µM, partner dose 0.1 µM)", "cleaved PARP positive nuclei fraction": 106}, {"smiles": "Cn1cnc2c(F)c(Nc3ccc(Br)cc3Cl)c(C(=O)NOCCO)cc21", "note": "[selumetinib] + O=C(Nc1ccccc1)c1cc([N+](=O)[O-])ccc1Cl [GW9662] (first compound 0.015 µM, partner dose 2 µM)", "cleaved PARP positive nuclei fraction": 129}, {"smiles": "C[C@@H](N)c1ccc(C(=O)Nc2ccnc3[nH]ccc23)cc1", "note": "+ COc1ccc2c(c1)CCC1C2CCC2(C)C(NCCCCCCN3C(=O)C=CC3=O)CCC12 [U73122] (first compound 0.4 µM, partner dose 0.4 µM)", "cleaved PARP positive nuclei fraction": 233}, {"smiles": "CC(=O)O[C@@]12CO[C@@H]1C[C@H](O)[C@@]1(C)C(=O)[C@H](O)C3=C(C)[C@@H](OC(=O)[C@H](O)[C@@H](NC(=O)OC(C)(C)C)c4ccccc4)C[C@@](O)([C@@H](OC(=O)c4ccccc4)[C@H]21)C3(C)C", "note": "[Docetaxel] + COc1ccc(-c2ccc3c(N4CCOCC4)nc(N4C[C@@H](C)O[C@@H](C)C4)nc3n2)cc1CO [KU0063794] (first compound 0.0001 µM, partner dose 0.02 µM)", "cleaved PARP positive nuclei fraction": 332}, {"smiles": "CS(=O)(=O)c1ccc(C(=O)Nc2ccc(Cl)c(-c3ccccn3)c2)c(Cl)c1", "note": "[vismodegib] + COc1cc(N2CCC(N3CCN(C)CC3)CC2)ccc1Nc1ncc(Cl)c(Nc2ccccc2S(=O)(=O)C(C)C)n1 [NVP-TAE684] (first compound 1 µM, partner dose 0.08 µM)", "cleaved PARP positive nuclei fraction": 61.6}, {"smiles": "NC(=O)c1ccc(N(C(N)=O)c2c(F)cccc2F)nc1-c1ccc(F)cc1F", "note": "+ O=C(O)C(=O)Nc1sc2c(c1C(=O)O)CCNC2 [TCS401] (first compound 0.4 µM, partner dose 1.66667 µM)", "cleaved PARP positive nuclei fraction": 160}, {"smiles": "CCN(CC)CCNC(=O)c1c(C)[nH]c(/C=C2\\C(=O)Nc3ccc(F)cc32)c1C", "note": "[sunitinib] + CC(C)CCN1c2nc(Nc3cc(F)c(O)c(F)c3)ncc2N(C)C(=O)C1C [BID1870] (first compound 0.4 µM, partner dose 0.2 µM)", "cleaved PARP positive nuclei fraction": 94.7}]}]}
